# Source: PubChem BioAssay AID1259354 (Paczesny and Yang Labs, IUPUI and University of Michigan, 2018)
# Amino acid sequences for entries named in this document (tags omitted). A change or cut given only in a name is not applied to a line headed by its entry.
# UniProt Q01638: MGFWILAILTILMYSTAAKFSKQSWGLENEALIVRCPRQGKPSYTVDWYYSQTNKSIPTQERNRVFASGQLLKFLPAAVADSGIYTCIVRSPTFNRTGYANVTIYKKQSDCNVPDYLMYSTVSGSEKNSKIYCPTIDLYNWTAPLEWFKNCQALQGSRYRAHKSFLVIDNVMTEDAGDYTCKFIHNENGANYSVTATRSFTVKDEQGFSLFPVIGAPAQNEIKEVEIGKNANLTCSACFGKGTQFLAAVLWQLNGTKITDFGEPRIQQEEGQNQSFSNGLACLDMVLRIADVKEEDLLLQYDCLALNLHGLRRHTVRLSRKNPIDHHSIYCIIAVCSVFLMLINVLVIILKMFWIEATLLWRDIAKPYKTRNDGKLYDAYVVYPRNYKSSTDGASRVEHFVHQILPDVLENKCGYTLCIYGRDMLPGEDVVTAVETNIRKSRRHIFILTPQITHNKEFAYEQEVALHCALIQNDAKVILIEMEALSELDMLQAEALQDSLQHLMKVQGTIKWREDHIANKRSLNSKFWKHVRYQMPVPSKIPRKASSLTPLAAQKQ
# “And” between values parts separate entries of the source, which are not always exact repeats. Equal values may be shown once. The campaign covered roughly 78,000 compounds. About 1,800 (2.3%) were called active. This list was built around the results that the source calls inconclusive (neither active nor inactive); the mix of calls is not that of the screen. Rule as the data show it: active = inhibition above about 30%; inconclusive = mostly about 10% to 28%; inactive = weaker than that.
# Target: Interleukin-1 receptor-like 1 (Homo sapiens) (UniProt Q01638)
# Assay: blocks human ST2 binding to IL-33, primary screen, biochemical, AlphaLISA (AID 1259354)
# Conditions: AlphaLISA ST2-Fc/biotin-IL-33 interaction, 1 h; at 17 µM, hits give high values
row,Compound,inhibition
1,CC1Sc2sc(=O)sc2SC(C)(C)C1=O (centres undefined),inconclusive: 17%
2,Cn1c(=O)c2c(nc(SCC(=O)O)n2Cc2cc3c(cc2Cl)OCO3)n(C)c1=O,active: 37%
3,O=C(CC[C@@H]1CNC(=O)[C@@H]2C[C@H](NC(=S)NCc3ccco3)CN12)NCc1ccccc1,inactive
4,C=CCOc1ccc(C2C(C(=O)OCc3ccccc3)=C(C)N=C3SCCC(=O)N32)cc1 (centres undefined),inconclusive: 18%
5,O=S(=O)(Nc1ccc2c(c1)OCCO2)c1cccc2cccnc12,inconclusive: 17%
6,Nc1ccc(-c2ccc(S(=O)(=O)c3cccc(N)c3)cc2N)cc1,inconclusive: 12%
7,Cc1cc(NC(=O)c2ccc(C(=O)Nc3cc(C)on3)s2)no1,inconclusive: 13%
8,Cc1nc(C(C)C)ncc1C(=O)N1CCN(Cc2ccccc2CO)CC1,inconclusive: 11%
9,Cc1ccc(N(C(=O)c2c(F)cccc2F)C2C=CS(=O)(=O)C2)cc1C (centres undefined),inactive
10,CCc1nc2c(sc3nc4c(cc32)COC(C)(C)C4)c(=O)n1Cc1ccco1,inconclusive: 10%
11,O=C(C1CCCCC1)N1CCn2c1nc1ccccc12,inconclusive: 12%
12,CN(C)c1ncccc1CNC(=O)Cc1ccc(O)c(F)c1,inactive
13,CCCOC(=O)C1=C(C)NC2=C(C(=O)C(C(=O)OC)C(C)C2)C1c1ccc(OCC)cc1 (centres undefined),inactive
14,Cc1nc2c(C(=O)NCCc3ccc(Cl)cc3)c[nH]n2c(=O)c1Cc1ccccc1F,inconclusive: 11%
15,CC(C)NC(=O)[C@@H]1C[C@H](N)CN1C(=O)c1cccc2cnccc12,inconclusive: 13%
16,COC(=O)C1C(=O)NC(SCC(N)=O)=C(C#N)C1c1ccc(C)cc1 (centres undefined),inconclusive: 18%
17,O=C(CCc1nc(-c2ccccc2F)no1)Nc1nc2ccccc2s1,inactive
18,CCOC(=O)c1cc(-c2ccc(Br)cc2)no1,inactive
19,Cn1c(=O)n(C)c2cc(CN3CC(C(=O)O)CC3=O)ccc21 (centres undefined),inactive
20,COc1ccc(C2=C/C(=C/c3ccc(OC)c(OC)c3)C(=O)O2)c(OC)c1,inconclusive: 12%
21,COc1ccc(Nc2nc(-c3ccc(Cl)c(Cl)c3)cs2)cc1,inconclusive: 11%
22,O=C(Nc1ccccc1O)c1ccc(Oc2ccc([N+](=O)[O-])cc2)cc1,inconclusive: 17%
23,CCc1cc(C(C)NCc2cn[nH]c2-c2ccc(F)cc2)on1 (centres undefined),inactive
24,CC1CN(c2ccccc2)CCN1C(=O)CCn1cccc1 (centres undefined),inconclusive: 18%

row,Compound,inhibition
1,CSc1ccccc1NC(=O)c1noc2c1CCCC2,inconclusive: 12%
2,COc1ccccc1NC(=O)/C(=C\c1cccc([N+](=O)[O-])c1)NC(=O)c1cccs1,inactive
3,CCCOc1ccc(NC(=O)c2ccc([N+](=O)[O-])cc2)cc1,inconclusive: 10%
4,NC(=O)c1csc(N2CCC(CO)(Cc3ccccc3)CC2)n1,inconclusive: 23%
5,Cn1c(CN2CCCC(CO)(Cc3ccccc3)C2)nc2ccccc21 (centres undefined),inconclusive: 13%
6,CC(C)(C)c1nnc([C@H]2CCN(C(=O)C3CCCCC3)C2)o1,inactive
7,Cc1c(C(=O)NCc2snnc2C(C)C)sc2ncn(C)c(=O)c12,inconclusive: 11%
8,COC1(OC)N=C(N)C2(C#N)C3C=CC(CC3)C12C#N (centres undefined),inconclusive: 21%
9,COc1ccccc1C1CC(c2ccc(Br)cc2)=NN1C(=O)c1ccncc1 (centres undefined),inconclusive: 13%
10,CCOCCOC(=O)C1=C(C)NC2=C(C(=O)C(C(=O)OC)C(C)C2)C1c1cccc(O)c1 (centres undefined),inactive
11,COc1ccccc1CNC(=O)CN(C)C(C)c1ccon1 (centres undefined),inactive
12,Cc1cc(C)n(CC(C)n2ccnc2-c2ccc(C(=O)O)cc2)n1 (centres undefined),inactive
13,CC1(C)OC2c3ccccc3OC3(C)CCC1CC23 (centres undefined),inactive
14,Cc1cc([N+](=O)[O-])nn1CCCC(=O)Nc1c(Cl)cccc1Cl,inactive
15,Cc1ccc(O)c(NC(=O)c2cc(C3CC3)on2)c1,inconclusive: 12%
16,C/C(=C\c1ccc(-c2ccc(Cl)c(C(=O)O)c2)o1)[N+](=O)[O-],active: 32%
17,CCC(=O)N1CCc2cc(Br)cc(S(=O)(=O)NCCCN3CCOCC3)c21,inactive
18,Cc1nc2c(sc3nc4c(cc32)COC(C)(C)C4)c(=O)[nH]1,inactive
19,CCc1ccc(C2CC(c3cccc(Cl)c3)n3nc(N)nc3N2)cc1 (centres undefined),inconclusive: 16%
20,COc1ccc(-n2ncc3c(Nc4cc(C)cc(C)c4)ncnc32)cc1,inactive
21,COc1ccc(NC(=O)c2ccc(OC)c(Br)c2)c(OC)c1,inconclusive: 22%
22,CC(=O)c1cn(CC(=O)Nc2cnc3n2CCCC3)c2ccccc12,inconclusive: 10%
23,COc1ccc(CN2C[C@H](O)C[C@H]2c2nc(Cc3ccccc3)no2)cc1,inconclusive: 16%
24,O=C(O)C1C2C=CC(O2)C1C(=O)Nc1ccc2c(c1)OCO2 (centres undefined),active: 31%

row,Compound,inhibition
1,CCN(CC)c1ccc(NC(=O)c2cnccn2)cc1,active: 56%
2,COc1ccc(CNc2ccc3c(c2)ncn3C2CCCCC2)cc1OC,active: 33%
3,O=S(=O)(Nc1cccc2c1CCCC2)c1cccc2nsnc12,inconclusive: 15% and inconclusive: 10%
4,O=C(CN1CCN(c2ccc([N+](=O)[O-])cc2)CC1)Nc1ccc(F)cc1,inconclusive: 18%
5,Cc1ccccc1CSc1nc2c(c(=O)n1-c1ccccc1)SCC2,inconclusive: 21% and inconclusive: 12%
6,CCc1sc(/C=C2\C(=O)ON=C2c2ccccc2)cc1[N+](=O)[O-],inconclusive: 21%
7,O=C(Nc1ccc(F)c(F)c1)C(Cc1ccccc1)NS(=O)(=O)c1cccs1 (centres undefined),inconclusive: 10%
8,CCCSC1=C(C#N)C(c2cc(Br)c(O)c(OC)c2)CC(=O)N1 (centres undefined),inconclusive: 13%
9,O=c1/c(=C/c2ccc(Cl)cc2)sc2nnc(-c3ccccc3)n12,inactive
10,COc1ccc(-c2n[nH]c(C)c2Oc2ccccc2)c(O)c1OC,inconclusive: 13%
11,O=C1N(Cc2cccc(Cl)c2)C[C@@H]2C[C@@H](c3ccc4nsnc4c3)N3CCC[C@@]123,active: 40%
12,C/C(=C\c1ccco1)CN(Cc1ccccn1)CC1CCCO1 (centres undefined),inconclusive: 15%
13,CCCCOc1ccc(CN2CCN(c3ccccc3F)CC2)cc1,inactive
14,CN(C)c1ccc(C2SCCN2C(=O)c2cc3cc(Br)ccc3oc2=O)cc1 (centres undefined),inconclusive: 25%
15,COc1cc(NC(=O)C2CCCN2C(=O)c2ccc(-c3noc(C)n3)cc2)cc(OC)c1 (centres undefined),inactive
16,COc1ccc2oc(=O)c(C(=O)Nc3cccc(Cl)c3C)cc2c1,inconclusive: 17%
17,O=C1N=C(N2CCOCC2)S/C1=C\c1ccccc1O,inconclusive: 15%
18,COc1ccc(OC2CCN(C(C)=O)CC2)c(C(=O)NC(C)Cc2cccs2)c1 (centres undefined),inconclusive: 11%
19,Cc1ccc(S(=O)(=O)N=C2C=C(Nc3cccc(C(=O)O)c3)C(=O)c3ccccc32)c(C)c1,active: 48%
20,CCN(CC)c1ccc(N=Cc2cccc(OC)c2O)cc1,active: 94%
21,N#C/C(=C/c1cccc(F)c1)c1nc(-c2ccc(Br)cc2)cs1,inconclusive: 27%
22,N=C1S/C(=C\c2ccc(-c3ccccc3[N+](=O)[O-])o2)C(=O)N1c1nccs1,inconclusive: 11%
23,Cc1ccc2nc(NCc3ccccc3)c(C=Nc3ccccc3)c(=O)n2c1,inconclusive: 12%
24,CCOC(=O)c1c(C)oc2ccc(OCc3c(F)cccc3Cl)cc12,inconclusive: 17%

row,Compound,inhibition
1,O=C(NCCCn1cncn1)C1CCCN(Cc2ccco2)C1 (centres undefined),inconclusive: 16%
2,COc1ncccc1-c1cc(C(=O)NC2CC2)ccn1,inconclusive: 21%
3,N#Cc1sc2nc(C3CC3)cc(-c3ccccc3)c2c1N,inconclusive: 11%
4,CC(C)c1ccc(NC(=O)c2ccc(Cl)cc2)cc1,inconclusive: 16%
5,CN1C=C(c2ccc3ccccc3n2)C(C#N)c2ccccc21 (centres undefined),inconclusive: 28%
6,COc1cc2c(cc1OC)C(C(=O)N1CCCCCC1)C(c1cccs1)N(C)C2=O (centres undefined),inactive
7,Cc1c(C#N)c2ccccc2n1CC(=O)NCC1CCCO1 (centres undefined),inactive
8,C=CCn1cc(CN2CCCN(C(=O)OCc3ccccc3)CC2)c(C)n1,inconclusive: 12%
9,CN1CCN(C(=O)CN2C(=O)/C(=C\c3cccc(Cl)c3)Sc3ccccc32)CC1,inconclusive: 22%
10,CCc1nnsc1C(=O)N1C[C@@H]2[C@@H]3CC[C@@H](C3)[C@@H]2C1,inconclusive: 12%
11,O=C(NC1CCN(Cc2cccnc2)CC1)c1cccc2nccnc12,inactive
12,CC(C)N(Cc1cnn(C)c1)C(=O)CCSc1ccc2c(c1)OCCO2,inactive
13,Oc1ccc(O)c2c1C1c3ccccc3C2c2ccccc21,inconclusive: 11%
14,CCc1oc(C(=O)N2CCOC(C(F)(F)F)C2)cc1CN(CC)CC (centres undefined),inactive
15,O=C(CN1C(=O)C(=O)c2ccccc21)Nc1ccc(Br)cc1,inactive
16,CCCC(C)c1nnc(NC(=O)c2cc(OC)nc(OC)n2)s1 (centres undefined),inconclusive: 16%
17,COc1cc(OC2OC(COC3OCC(O)(CO)C3O)C(O)C(O)C2O)c2c(-c3ccc(O)c(O)c3)cc(=O)oc2c1 (centres undefined),active: 33%
18,CCOC(=O)N1CCN(Cc2ccc(OC)c(OCC)c2)CC1,inactive
19,CCCNC(=O)[C@@H]1CCCC[C@@H]1C(=O)NCc1cc(C)oc1C(F)(F)F,inconclusive: 11%
20,COC1CC(=O)C23C(=O)NC(CC(C)C)C2C(C)C(C)=CC3/C=C(\C)CCC(O)C1O (centres undefined),inconclusive: 16%
21,Cc1ccc(CSC2=NCCN2C(=O)c2ccc(S(=O)(=O)N3CCCC3)cc2)cc1,inactive
22,COc1cccc(NC(=O)O[C@@H]2CO[C@H]3[C@@H]2OC[C@@H]3Nc2nccc(-c3cccs3)n2)c1,inconclusive: 12%

# Quoted from the listing:
# Under inhibition, `COC1(OC)N=C(N)C2(C#N)C3C=CC(CC3)C12C#N` (centres undefined) has the entry inconclusive: 21%
# Under inhibition, `CCc1nnsc1C(=O)N1C[C@@H]2[C@@H]3CC[C@@H](C3)[C@@H]2C1` has the entry inconclusive: 12%
# Under inhibition, `CSc1ccccc1NC(=O)c1noc2c1CCCC2` has the entry inconclusive: 12%
# Under inhibition, `CCOC(=O)N1CCN(Cc2ccc(OC)c(OCC)c2)CC1` has the entry inactive

# Of the compounds above, these contain a CF3 group:
row,Compound,inhibition
14,CCc1oc(C(=O)N2CCOC(C(F)(F)F)C2)cc1CN(CC)CC (centres undefined),inactive
19,CCCNC(=O)[C@@H]1CCCC[C@@H]1C(=O)NCc1cc(C)oc1C(F)(F)F,inconclusive: 11%
